{"source": "the supplement of paper PMC8728848", "binders": {"B1": {"name": "Epa19 (Candida glabrata) (protein)", "chain": "MGSSHHHHHHSSGLVPRGSHMASSKDPTRFPIGCSPQVLKTQPGLAVKLYSYGHPVPGCSYITYQYPDFPRSGYKKERKLADITGVNGKIDIDLKPNDPCRVLTGHLPSNYNYPDTLTYTNFTMILYGYFQPKVTGYHTFNLEADDLLFMNLGAGNAFDCCKAESTLDNFGNYQSYSLWGSDYAKANITVFLVSGVYYPIRLFYVNRDNNAVIDFSFTTEFDKEKVHDFTSYFFSASDGEQCPGSV"}}, "assay_in_all_cases": "glycan array binding signal (z-score within array); higher = stronger binding", "conditions_in_all_cases": "glycan notation: IUPAC condensed, linker removed", "key": {"[1]": {"biological_target": "Neu5Ac(a2-6)GlcNAc(b1-4)GlcNAc", "outline": "(§1)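 Columns mapping to the same glycan were averaged after glycan names were converted to IUPAC-condensed notation. The data come from 3228 arrays in the Consortium for Functional Glycomics database, limited to those with an available protein sequence. Binding is reported as a within-array Z-score averaged across arrays of one protein sequence and across linkers.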"}, "[2]": {"biological_target": "Neu5Ac(a2-6)GlcNAc(b1-4)GlcNAc(b1-4)GlcNAc", "outline": "as §1"}, "[3]": {"biological_target": "Neu5Ac(a2-8)Neu5Ac", "outline": "as §1"}, "[4]": {"biological_target": "Neu5Ac(a2-8)Neu5Ac(a2-3)Gal(b1-3)GalNAc(b1-4)[Neu5Ac(a2-3)]Gal(b1-4)Glc", "outline": "as §1"}, "[5]": {"biological_target": "Neu5Ac(a2-8)Neu5Ac(a2-3)Gal(b1-3)GalNAc(b1-4)[Neu5Ac(a2-8)Neu5Ac(a2-3)]Gal(b1-4)Glc", "outline": "as §1"}, "[6]": {"biological_target": "Neu5Ac(a2-8)Neu5Ac(a2-3)Gal(b1-4)Glc", "outline": "as §1"}, "[7]": {"biological_target": "Neu5Ac(a2-8)Neu5Ac(a2-3)Gal(b1-4)GlcNAc", "outline": "as §1"}, "[8]": {"biological_target": "Neu5Ac(a2-8)Neu5Ac(a2-3)[Gal(b1-3)GalNAc(b1-4)]Gal(b1-4)Glc", "outline": "as §1"}, "[9]": {"biological_target": "Neu5Ac(a2-8)Neu5Ac(a2-3)[GalNAc(b1-4)]Gal(b1-4)Glc", "outline": "as §1"}, "[10]": {"biological_target": "Neu5Ac(a2-8)Neu5Ac(a2-8)Neu5Ac", "outline": "as §1"}, "[11]": {"biological_target": "Neu5Ac(a2-8)Neu5Ac(a2-8)Neu5Ac(a2-3)Gal(b1-4)Glc", "outline": "as §1"}, "[12]": {"biological_target": "Neu5Ac(a2-8)Neu5Ac(a2-8)Neu5Ac(a2-3)[Gal(b1-3)GalNAc(b1-4)]Gal(b1-4)Glc", "outline": "as §1"}, "[13]": {"biological_target": "Neu5Ac(a2-8)Neu5Ac(a2-8)Neu5Ac(a2-3)[GalNAc(b1-4)]Gal(b1-4)Glc", "outline": "as §1"}, "[14]": {"biological_target": "Neu5Ac(a2-8)Neu5Ac(a2-8)Neu5Ac(a2-8)Neu5Ac(a2-3)[GalNAc(b1-4)]Gal(b1-4)Glc", "outline": "as §1"}, "[15]": {"biological_target": "Neu5Ac(a2-8)Neu5Gc(a2-3)Gal(b1-4)GlcNAc", "outline": "as §1"}, "[16]": {"biological_target": "Neu5Ac(b2-6)Gal(b1-4)GlcNAc", "outline": "as §1"}, "[17]": {"biological_target": "Neu5Ac(b2-6)GalNAc", "outline": "as §1"}, "[18]": {"biological_target": "Neu5Ac9Ac(a2-3)Gal(b1-3)GlcNAc", "outline": "as §1"}, "[19]": {"biological_target": "Neu5Ac9Ac(a2-3)Gal(b1-4)GlcNAc", "outline": "as §1"}, "[20]": {"biological_target": "Neu5Ac9Ac(a2-6)Gal(b1-4)GlcNAc", "outline": "as §1"}, "[21]": {"biological_target": "Neu5Gc(a2-3)Gal(b1-3)GlcNAc", "outline": "as §1"}, "[22]": {"biological_target": "Neu5Gc(a2-3)Gal(b1-3)[Fuc(a1-4)]GlcNAc", "outline": "as §1"}, "[23]": {"biological_target": "Neu5Gc(a2-3)Gal(b1-4)Glc", "outline": "as §1"}, "[24]": {"biological_target": "Neu5Gc(a2-3)Gal(b1-4)GlcNAc", "outline": "as §1"}, "[25]": {"biological_target": "Neu5Gc(a2-3)Gal(b1-4)GlcNAc(b1-3)Gal(b1-4)GlcNAc(b1-2)Man(a1-3)[Neu5Gc(a2-3)Gal(b1-4)GlcNAc(b1-3)Gal(b1-4)GlcNAc(b1-2)Man(a1-6)]Man(b1-4)GlcNAc(b1-4)GlcNAc", "outline": "as §1"}, "[26]": {"biological_target": "Neu5Gc(a2-3)Gal(b1-4)[Fuc(a1-3)]GlcNAc", "outline": "as §1"}, "[27]": {"biological_target": "Neu5Gc(a2-6)Gal(b1-4)GlcNAc", "outline": "as §1"}, "[28]": {"biological_target": "Neu5Gc(a2-6)GalNAc", "outline": "as §1"}, "[29]": {"biological_target": "Neu5Gc(a2-8)Neu5Ac(a2-3)Gal(b1-4)GlcNAc", "outline": "as §1"}, "[30]": {"biological_target": "Neu5Gc(a2-8)Neu5Gc(a2-3)Gal(b1-4)GlcNAc", "outline": "as §1"}, "[31]": {"biological_target": "Neu5Gc(a2-8)Neu5Gc(a2-3)Gal(b1-4)GlcNAc(b1-3)Gal(b1-4)GlcNAc", "outline": "as §1"}, "[32]": {"biological_target": "Neu5Gc(a2-8)Neu5Gc(a2-6)Gal(b1-4)GlcNAc", "outline": "as §1"}, "[33]": {"biological_target": "Neu5Gc(b2-6)Gal(b1-4)GlcNAc", "outline": "as §1"}}, "note": "The other results are listed elsewhere or left out."}
{"binder": "B1", "values": [{"measurement": "glycan array binding signal (z-score)", "setting": "[1]", "result": 1.44}, {"measurement": "glycan array binding signal (z-score)", "setting": "[2]", "result": -0.588}, {"measurement": "glycan array binding signal (z-score)", "setting": "[3]", "result": -0.577}, {"measurement": "glycan array binding signal (z-score)", "setting": "[4]", "result": -0.103}, {"measurement": "glycan array binding signal (z-score)", "setting": "[5]", "result": 0.259}, {"measurement": "glycan array binding signal (z-score)", "setting": "[6]", "result": -0.214}, {"measurement": "glycan array binding signal (z-score)", "setting": "[7]", "result": -0.858}, {"measurement": "glycan array binding signal (z-score)", "setting": "[8]", "result": 0.074}, {"measurement": "glycan array binding signal (z-score)", "setting": "[9]", "result": 1.57}, {"measurement": "glycan array binding signal (z-score)", "setting": "[10]", "result": 0.189}, {"measurement": "glycan array binding signal (z-score)", "setting": "[11]", "result": -0.125}, {"measurement": "glycan array binding signal (z-score)", "setting": "[12]", "result": 2.06}, {"measurement": "glycan array binding signal (z-score)", "setting": "[13]", "result": 0.647}, {"measurement": "glycan array binding signal (z-score)", "setting": "[14]", "result": -0.059}, {"measurement": "glycan array binding signal (z-score)", "setting": "[15]", "result": -1.05}, {"measurement": "glycan array binding signal (z-score)", "setting": "[16]", "result": 1.13}, {"measurement": "glycan array binding signal (z-score)", "setting": "[17]", "result": -0.238}, {"measurement": "glycan array binding signal (z-score)", "setting": "[18]", "result": -0.414}, {"measurement": "glycan array binding signal (z-score)", "setting": "[19]", "result": -0.384}, {"measurement": "glycan array binding signal (z-score)", "setting": "[20]", "result": -0.265}, {"measurement": "glycan array binding signal (z-score)", "setting": "[21]", "result": -0.05}, {"measurement": "glycan array binding signal (z-score)", "setting": "[22]", "result": -0.114}, {"measurement": "glycan array binding signal (z-score)", "setting": "[23]", "result": 0.353}, {"measurement": "glycan array binding signal (z-score)", "setting": "[24]", "result": -0.325}, {"measurement": "glycan array binding signal (z-score)", "setting": "[25]", "result": -0.264}, {"measurement": "glycan array binding signal (z-score)", "setting": "[26]", "result": -0.125}, {"measurement": "glycan array binding signal (z-score)", "setting": "[27]", "result": -0.062}, {"measurement": "glycan array binding signal (z-score)", "setting": "[28]", "result": -0.123}, {"measurement": "glycan array binding signal (z-score)", "setting": "[29]", "result": -0.467}, {"measurement": "glycan array binding signal (z-score)", "setting": "[30]", "result": -0.386}, {"measurement": "glycan array binding signal (z-score)", "setting": "[31]", "result": -1.06}, {"measurement": "glycan array binding signal (z-score)", "setting": "[32]", "result": -0.259}, {"measurement": "glycan array binding signal (z-score)", "setting": "[33]", "result": -0.317}]}
